This data set addresses human serum albumin (HSA) (Homo sapiens) (UniProt P02768). Put plainly: ELONA. The note with it: purified recombinant protein, label: biotin, single-stranded DNA.
The mark [1] stands for this setting: Nap-dU at all positions marked 6 (n).

The text below walks through data of patent US20240327848.

“GAGTGACCGTCTGCCTACTAAATGTCTGTCAAATACTATACGGTCTCGTATCATGACAGCCACACCACCAGCC [Clone 9]”: the binding result under setting [1] is “binds”.
As to “GAGTGACCGTCTGCCTTAGTGGGATGATCTTGCCATAGAACTTAACCGGATGGTCACAGCCACACCACCAGCC [Clone 8]”, the binding result under setting [1] is reported as “binds”.
In the case of “GAGTGACCGTCTGCCTTCTTGAACTAGAACTTAACCGCTATGGTTACAGCGGTACAGCCACACCACCAGCC [Clone 10]”, the binding result (Nap-dU at all positions marked 6 (n) [n positions 17,19,20,25,31,32,39,41,44,45,53 = modified dU]) was “binds”.
